According to patent publication US20250129114 (published 2025):

Test: general procedure: Fmoc solid-phase peptide synthesis; RA ProTide LL; RA MBHA PS LL; Fmoc-Gly-Wang-ProTide; Fmoc-Ala-Wang-ProTide
Details: whole synthesis, UPLC, scale of the general procedure 0.1 mmol; run 1

thymosin
crude purity (method not given): 69%
